Here are results for 17 compounds from PubChem BioAssay AID445 (National Center for Advancing Translational Sciences (NCATS), 2006).

A word on the AC50: it is the concentration at which the activity in the assay is half-maximal.

This is one part of the list. Shown are side measurements of this screen, not its main read-out; they come without a call. Compounds called inactive in the main read-out are mostly missing here. Words in brackets tell the shape of the fitted curve; partial curves, single points and poor fits give uncertain potencies.

A short description of the experiment: IkB Signaling. The following applies: ABC-DLBCL IkBa-CBG/CBR dual luciferase ratio (green luciferase fused to IkBa over red control in OCI-Ly3 lymphoma cells), 4 h; measured here: control luc red channel unless noted. Summed up: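 Luminescence ratio of IκBα-fused green versus native red beetle luciferase in OCI-Ly3 cells, 4 h post-doxycycline with compound; red signal alone, scaled from basal (0%) to zero light (-100%), flagged nonspecific or cytotoxic effects.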
As to `Cc1ccc(NC(=O)C(=O)NCC(c2cccnc2)N2CCN(C)CC2)cc1` (configuration not stated), the AC50 is 20 µM [falling, partial curve].
Take `O=C(NCc1ccco1)c1ccc2c(=O)n(Cc3ccco3)c(SCC(=O)N3CCCC3)nc2c1`: the concentration at half-maximal activity (AC50) was 10 µM [falling, partial curve].
Regarding `CCn1c2c(c(=O)n3ncc(C(=O)Nc4ccc(C(=O)OC)cc4)c13)CN(Cc1ccc(OC)cc1)CC2`, the AC50 is 12.6 µM [falling, single point].
The same measure for `COc1ccc(C)cc1NC(=O)c1ccc2nc(Cc3ccccc3)oc2c1`: 1 µM [falling, partial curve]; for `COc1ccc(N2CCN(C(=O)CSc3nc4ccccc4nc3Cc3ccc(Cl)cc3)CC2)cc1`: 5.01 µM [falling, partial curve]; for `CCOc1ccc(OCc2ccc(C(=O)Nc3cccc(C)n3)o2)cc1`: 12.6 µM [falling, partial curve].
Under `Cc1c(C(=O)NCCc2ccc(Cl)cc2)cccc1-n1cnc2cccnc21` stands 15.8 µM [falling, partial curve, poor fit].
With `COc1ccc(N2CCN(C(=O)c3cc(-c4ccc(C)c(F)c4)on3)CC2)cc1`, the AC50 is 25.1 µM [falling, partial curve].
On to `CCn1c2ccccc2c2cc(CN3CCN(Cc4ccc(OC)c(OC)c4)CC3)ccc21`, for which the half-maximal activity concentration (AC50) was 15.8 µM [falling, partial curve].
Under `COc1ccc(Cn2c(=O)[nH]c3cc(C(=O)N4CCN(Cc5ccccc5)CC4)ccc3c2=O)cc1` stands 1.26 µM [falling, full curve, poor fit]; under `COc1cc(OC)c(OC)cc1CNc1cc(C)ccc1OC`, 10 µM [falling, partial curve].
In the case of `CCOC(=O)Cn1c(=O)n(CC2CCCO2)c2nc(-c3ccccc3Cl)nc(C(N)=O)c21` (configuration not stated), the half-maximal activity concentration (AC50) was 3.16 µM [falling, full curve].
Consider `O=c1c(N2CCc3ccccc3C2)csc2ccc(F)cc12`, for which the AC50 is 3.98 µM [falling, partial curve].
Consider `CCOc1ccccc1NC(=O)C1=C(C)Nc2ncnn2C1c1sccc1C` (configuration not stated), for which the AC50 is 25.1 µM [falling, partial curve].
Take `c1ccc(CSc2nnc(-c3ccco3)c(-c3ccco3)n2)cc1`: the concentration at half-maximal activity (AC50) was 25.1 µM [rising, partial curve] [measured here: IkB-luc green channel].
Under `Cc1ccc(CNC(=O)c2c(-c3ccc(Br)cc3)noc2C)o1` stands 31.6 µM [falling, single point]; under `O=C(CCCn1c(=O)c2cccn2c2cccnc21)Nc1ccccc1C(F)(F)F`, 2.51 µM [rising, full curve].
